Values from PubChem BioAssay AID1053208 (Peter MacCallum Cancer Centre, 2014)

- Screen: 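Synthetic lethal interactions between gene loss and doxorubicin in osteosarcoma cells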 (primary screen)
- Cells: mouse osteosarcoma cells, early-passage culture from an engineered mouse model of fibroblastic bone tumour
- Reagents: siRNA pool against mouse genes, 40 nM
- Timing: about 120 h (48 h before drug, then 72 h with drug)
- Challenge: doxorubicin 100 nM for 72 h, roughly 30-40% inhibitory dose
- Measured: 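Luminescent ATP signal taken as viability with or without 100 nM doxorubicin for 72 h; mean of two wells set against non-targeting siRNA and turned into robust z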
- Reading the numbers: viability z-score with doxorubicin: higher = more viable cells under doxorubicin; viability z-score without drug: higher = more viable cells with knock-down alone
- Call rule: 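a pool counts as active when its viability z-score with doxorubicin is -2 or below and its z-score without drug lies between -2 and 2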
The deposit covers about 17,000 reagents; below is a random part of them. 788 of them (4.7%) were called active. 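Calls rest on z-score classes alone; an extra cut-off of viability at most 70% of control was not applied to them.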 Not all columns of the deposit are shown.

Gene | combined z-score class | viability z-score with doxorubicin | viability z-score without drug | Outcome
Psors1c2 (GeneID 57390) | high cell count with and without drug | 4.95 | 2.7 | inactive
Aff1 (GeneID 17355) | no change with or without drug | 0.34 | -0.51 | inactive
Neo1 (GeneID 18007) | no change with or without drug | 0.56 | -1.18 | inactive
4933404G15Rik (GeneID 74066) | no change with or without drug | -0.22 | 0.67 | inactive
Or6d12 (GeneID 258019) | no change with or without drug | 0.22 | 0.34 | inactive
Rapgef2 (GeneID 76089) | no change with or without drug | 0.56 | 0.34 | inactive
H2-M10.2 (GeneID 333715) | no change with or without drug | -0.9 | 0.17 | inactive
Exo1 (GeneID 26909) | no change with or without drug | 0.67 | 1.85 | inactive
Gba2 (GeneID 230101) | no change with or without drug | -0.67 | 0.17 | inactive
Tulp3 (GeneID 22158) | no change with or without drug | -0.79 | 0 | inactive
Itih2 (GeneID 16425) | no change with or without drug | -1.57 | -1.01 | inactive
Plcd1 (GeneID 18799) | no change with or without drug | 0.45 | 1.35 | inactive
Pigs (GeneID 276846) | no change with or without drug | 0.22 | 1.85 | inactive
Or9s14 (GeneID 258484) | no change with or without drug | -1.8 | -0.51 | inactive
Plcg1 (GeneID 18803) | no change with or without drug | -0.67 | 0.84 | inactive
Rffl (GeneID 67338) | no change with or without drug | -0.67 | -0.34 | inactive
Pmp22 (GeneID 18858) | no change with or without drug | 0.9 | -0.34 | inactive
H2-T24 (GeneID 15042) | no change with or without drug | -0.45 | 0.17 | inactive
Thbs4 (GeneID 21828) | no change with or without drug | -1.46 | -0.51 | inactive
Sppl2c (GeneID 237958) | no change with or without drug | -0.45 | -0.51 | inactive
Dscaml1 (GeneID 114873) | no change with or without drug | -0.67 | 1.85 | inactive
Rarres2 (GeneID 71660) | no change with or without drug | 0.45 | 0.84 | inactive
Armc5 (GeneID 233912) | no change with or without drug | 1.12 | -1.01 | inactive

A few values from above.
Psors1c2 (GeneID 57390), viability z-score without drug = 2.7
For “viability z-score without drug”, Aff1 (GeneID 17355) shows -0.51
Result of H2-M10.2 (GeneID 333715) in “viability z-score without drug”: 0.17
For “viability z-score without drug”, Pmp22 (GeneID 18858) is entered as -0.34
Under “viability z-score with doxorubicin”, Sppl2c (GeneID 237958) shows -0.45
Dscaml1 (GeneID 114873), combined z-score class: no change with or without drug

The list goes on:
Gene | combined z-score class | viability z-score with doxorubicin | viability z-score without drug | Outcome
Praf2 (GeneID 54637) | no change with or without drug | -0.45 | 0.67 | inactive
Gm38404 (GeneID 232386) | no change with or without drug | 1.12 | -0.17 | inactive
Rundc3a (GeneID 51799) | no change with or without drug | 0.22 | -0.51 | inactive
Gimap6 (GeneID 231931) | no change with or without drug | -1.57 | -0.17 | inactive
Ints12 (GeneID 71793) | no change with or without drug | 1.24 | -0.17 | inactive
Nfe2l2 (GeneID 18024) | high cell count without drug only | 1.8 | 2.19 | inactive
Slc25a14 (GeneID 20523) | no change with or without drug | 0.45 | -0.17 | inactive
Rims2 (GeneID 116838) | no change with or without drug | -1.12 | -1.18 | inactive
Or10h1 (GeneID 100038860) | no change with or without drug | 0.67 | -0.84 | inactive
Sult4a1 (GeneID 29859) | no change with or without drug | -1.69 | -1.18 | inactive
Zbp1 (GeneID 58203) | no change with or without drug | -1.12 | -0.51 | inactive
Kctd4 (GeneID 67516) | no change with or without drug | -1.12 | 0.17 | inactive
Kcnk4 (GeneID 16528) | no change with or without drug | 0.22 | -1.52 | inactive
Apon (GeneID 28194) | no change with or without drug | 0.67 | 0.51 | inactive
Mmp2 (GeneID 17390) | no change with or without drug | 0.45 | 0.84 | inactive
Iah1 (GeneID 67732) | no change with or without drug | 0.79 | 0 | inactive
Camp (GeneID 12796) | no change with or without drug | 0.22 | -0.84 | inactive
Dusp9 (GeneID 75590) | no change with or without drug | -1.01 | -0.51 | inactive
Als2 (GeneID 74018) | no change with or without drug | 0.56 | -0.51 | inactive
Ccdc71l (GeneID 72123) | no change with or without drug | -0.45 | 0.51 | inactive
Actrt2 (GeneID 73353) | no change with or without drug | 0.9 | -0.17 | inactive
Hmgxb3 (GeneID 106894) | no change with or without drug | 1.35 | -0.17 | inactive
Zfp1006 (GeneID 72139) | high cell count with doxorubicin only | 2.14 | 0.17 | inactive
Surf2 (GeneID 20931) | no change with or without drug | 0 | 0.51 | inactive
Uqcrfs1 (GeneID 66694) | no change with or without drug | -0.22 | -1.69 | inactive
Ilf3 (GeneID 16201) | no change with or without drug | -0.45 | -1.18 | inactive
Cyp2d13 (GeneID 68444) | no change with or without drug | -1.12 | 1.18 | inactive
